Among the data in article PMC8615856 are binding values, retold here.

By UniProt entry, the sequences of proteins in these tests, tags left out.
UniProt P00921: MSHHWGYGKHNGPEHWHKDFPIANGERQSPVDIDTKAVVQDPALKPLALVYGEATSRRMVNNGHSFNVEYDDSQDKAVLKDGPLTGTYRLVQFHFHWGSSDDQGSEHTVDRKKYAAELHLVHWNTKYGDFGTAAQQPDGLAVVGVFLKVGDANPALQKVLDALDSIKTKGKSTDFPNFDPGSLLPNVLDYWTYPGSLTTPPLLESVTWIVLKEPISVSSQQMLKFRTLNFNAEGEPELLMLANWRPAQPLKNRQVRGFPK

Results are given in words; binding and its absence hold for the method and conditions named.

The target of the test is bovine carbonic anhydrase B (bovine) (UniProt P00921). The experiment in a line: SEC; Superdex 200 10/300 GL, 50 mM sodium phosphate with citric acid, pH 2.7; BCAB before hydrolysis diluted to 0.004 mg/mL; both purified. On the technique in general: SEC sorts molecules by how far they enter the pores of the column.

For “bovine carbonic anhydrase B (from UniProt P00921 1-260) (enzyme)”, the binding entry was “no binding (condition: diluted to 0.004 mg/mL)”.
